Assay results taken from PMC7571625.
Results are given in words; binding and its absence hold for the method and conditions named. Binding seen in cells or lysates may run through a third protein. Here binding means that the protein was enriched with, or labelled near, the bait; the list need not be complete. For some of these results: A no says only that the protein was not detected with the bait. Where a sequence is shown, tags or fusion partners need not be part of it.

By UniProt entry, the sequences of proteins in these tests, tags left out.
UniProt Q8TDG2: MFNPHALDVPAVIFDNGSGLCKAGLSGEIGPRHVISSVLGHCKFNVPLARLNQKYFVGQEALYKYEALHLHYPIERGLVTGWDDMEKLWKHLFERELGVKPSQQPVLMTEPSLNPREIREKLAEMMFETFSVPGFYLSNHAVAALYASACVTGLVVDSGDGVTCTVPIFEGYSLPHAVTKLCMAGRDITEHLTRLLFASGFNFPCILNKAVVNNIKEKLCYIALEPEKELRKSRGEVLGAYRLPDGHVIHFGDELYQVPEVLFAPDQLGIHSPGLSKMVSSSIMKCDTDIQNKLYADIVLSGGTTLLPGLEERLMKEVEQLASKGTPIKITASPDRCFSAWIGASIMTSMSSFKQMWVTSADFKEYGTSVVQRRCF

B1: ATG9A, endogenous in HEK293 (protein, UniProt Q7Z3C6 1-839)
chain: MAQFDTEYQRLEASYSDSPPGEEDLLVHVAEGSKSPWHHIENLDLFFSRVYNLHQKNGFTCMLIGEIFELMQFLFVVAFTTFLVSCVDYDILFANKMVNHSLHPTEPVKVTLPDAFLPAQVCSARIQENGSLITILVIAGVFWIHRLIKFIYNICCYWEIHSFYLHALRIPMSALPYCTWQEVQARIVQTQKEHQICIHKRELTELDIYHRILRFQNYMVALVNKSLLPLRFRLPGLGEAVFFTRGLKYNFELILFWGPGSLFLNEWSLKAEYKRGGQRLELAQRLSNRILWIGIANFLLCPLILIWQILYAFFSYAEVLKREPGALGARCWSLYGRCYLRHFNELEHELQSRLNRGYKPASKYMNCFLSPLLTLLAKNGAFFAGSILAVLIALTIYDEDVLAVEHVLTTVTLLGVTVTVCRSFIPDQHMVFCPEQLLRVILAHIHYMPDHWQGNAHRSQTRDEFAQLFQYKAVFILEELLSPIVTPLILIFCLRPRALEIIDFFRNFTVEVVGVGDTCSFAQMDVRQHGHPQWLSAGQTEASVYQQAEDGKTELSLMHFAITNPGWQPPRESTAFLGFLKEQVQRDGAAASLAQGGLLPENALFTSIQSLQSESEPLSLIANVVAGSSCRGPPLPRDLQGSRHRAEVASALRSFSPLQPGQAPTGRAHSTMTGSGVDARTASSGSSVWEGQLQSLVLSEYASTEMSLHALYMHQLHKQQAQAEPERHVWHRRESDESGESAPDEGGEGARAPQSIPRSASYPCAAPRPGAPETTALHGGFQRRYGGITDPGTVPRVPSHFSRLPLGGWAEDGQSASRHPEPVPEEGSEDELPPQVHKV

Target: T1, GFP-ANXA6 (annexin A6) (UniProt P08133)
T1 sequence: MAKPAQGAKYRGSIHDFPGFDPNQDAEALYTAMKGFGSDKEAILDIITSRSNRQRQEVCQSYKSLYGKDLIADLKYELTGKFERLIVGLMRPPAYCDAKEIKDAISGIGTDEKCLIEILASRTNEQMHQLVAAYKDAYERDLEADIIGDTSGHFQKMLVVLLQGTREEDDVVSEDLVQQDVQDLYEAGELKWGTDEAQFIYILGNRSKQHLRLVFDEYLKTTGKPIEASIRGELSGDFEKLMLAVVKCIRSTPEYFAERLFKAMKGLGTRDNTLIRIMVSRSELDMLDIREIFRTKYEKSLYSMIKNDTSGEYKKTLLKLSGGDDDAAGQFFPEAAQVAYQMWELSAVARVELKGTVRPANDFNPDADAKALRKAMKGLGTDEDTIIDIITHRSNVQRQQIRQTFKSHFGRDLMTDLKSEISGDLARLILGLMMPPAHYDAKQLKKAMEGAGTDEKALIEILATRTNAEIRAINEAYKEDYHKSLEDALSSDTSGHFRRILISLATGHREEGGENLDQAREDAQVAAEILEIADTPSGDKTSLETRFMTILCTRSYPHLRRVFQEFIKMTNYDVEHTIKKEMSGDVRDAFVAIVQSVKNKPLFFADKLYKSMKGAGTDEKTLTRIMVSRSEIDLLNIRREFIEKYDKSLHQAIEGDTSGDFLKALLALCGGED
Assay: affinity purification with mass spectrometry; HEK293 overexpressing GFP-ANXA6, control or starved in EBSS for 2 h; lysed in IP buffer; pull-down with GFP-Trap Agarose; SDS-PAGE, trypsin digestion, LC-MS/MS, label-free quantitation

| Molecule | binding |
| --- | --- |
| B1 | no binding |

Target: T1, GFP-ANXA6 (annexin A6)
Assay: as above
Remark: another data set of the same source

| Molecule | binding |
| --- | --- |
| RAB5 (human (endogenous in HEK293)) | binds |
| RAB11 (human (endogenous in HEK293)) | binds |
| RAB7 (human (endogenous in HEK293)) | binds |
| RAB8 (human (endogenous in HEK293)) | binds |
| RAB2 (human (endogenous in HEK293)) | binds |
| ACTRT1 (actin-related protein T1) (from UniProt Q8TDG2 1-376) | binds |
